In PubChem BioAssay AID1347426 (Functional Genomics Laboratory (NCATS/FGL), 2020):
Hit rate of the full screen: of about 31,000 sequences, about 1,400 (4.5%) were called active.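 How the source made its calls: active means median seed-adjusted z-score above 1 or below -1; inactive means the rest.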 The list shows a part of the results.

Assay: Novel Modifiers of Survival Motor Neuron (SMN) Protein: Gene Identification via Genome-wide siRNA Screen;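 further: luminescence tracks full-length SMN protein made from the SMN2 reporter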
Details: HEK293T SMN2-luciferase reporter, siRNA knockdown, 72 h; actives lie on both sides
Outline: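 Luciferase signal, proportional to full-length SMN made from an SMN2 cDNA reporter in stable HEK293T cells, was read 72 h after siRNA reverse transfection. Values were expressed as MAD scores after non-targeting-control normalization and log10 conversion; seed analysis flagged off-targets.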

Question: For CAGCUUAGAUGGAAACCAUTT against HGD, which median seed-adjusted z-score is on record?
Answer: inactive: -0.0401

Question: For GAAAAAUUGGGAUCUUUUUTT against METTL6, which median seed-adjusted z-score is on record?
Answer: inactive: -0.415

Question: With GAAUGGGUUUGGAAGCCUUTT against TBX18 as the sequence, how does the median seed-adjusted z-score read?
Answer: inactive: 0.424

Question: For CAAUGAUCGGGAGCGAGUATT against ARF3, which median seed-adjusted z-score is on record?
Answer: inactive: 0.18

Question: Which median seed-adjusted z-score does the source give for GGAGUGUACUUUGAGGAUUTT against ZFP57 here?
Answer: inactive: -0.267

Question: Which median seed-adjusted z-score does the source give for GUCAGAGGAUGGUCCCAAATT against PRDM14 here?
Answer: inactive: 0.316

Question: For CCUUUAACCAGUCUGCACATT against ZNF85, which median seed-adjusted z-score is on record?
Answer: active: -1.01

Question: With GGAAACGAAGUGAAGCUAATT against PECI as the sequence, how does the median seed-adjusted z-score read?
Answer: inactive: -0.0254

Question: For GGGUUUUGGAGAUCAUAUUTT against TXNDC12, which median seed-adjusted z-score is on record?
Answer: inactive: -0.154

Question: Which median seed-adjusted z-score does the source give for CCAGAUCCGCGAACUGGAATT against HOXD11 here?
Answer: inactive: -0.185

Question: For CUACAACACUUUUGACGGUTT against BMPER, which median seed-adjusted z-score is on record?
Answer: inactive: -0.684

Question: For GAAUGUUAAAAGACAACAATT against CLINT1, which median seed-adjusted z-score is on record?
Answer: inactive: 0.332

Question: For CCUCAUAUGUGGGACAGAATT against USP3, which median seed-adjusted z-score is on record?
Answer: inactive: -0.176

Question: With CUGUGAUGCUUUCACCUAUTT against TFPI2 as the sequence, how does the median seed-adjusted z-score read?
Answer: inactive: 0.519

Question: With GCAGAGUCAUCAUGAGCUATT against SMAD5 as the sequence, how does the median seed-adjusted z-score read?
Answer: inactive: -0.701

Question: For GCACAGAGGUGACAUCUCATT against TP53I13, which median seed-adjusted z-score is on record?
Answer: inactive: 0

Question: Which median seed-adjusted z-score does the source give for GCAUCUACCGAGUGGCCAATT against ADRA2C here?
Answer: inactive: 0

Question: Which median seed-adjusted z-score does the source give for CCGUCAAUGAGGGCACCUATT against MMP23B here?
Answer: inactive: 0.288

Question: Which median seed-adjusted z-score does the source give for ACACUUCACCUAGCAGAGATT against PTK7 here?
Answer: inactive: 0.548

Question: With GCCCUUCACUGAGGAGUUUTT against GRHL3 as the sequence, how does the median seed-adjusted z-score read?
Answer: inactive: -0.0434

Question: Which median seed-adjusted z-score does the source give for GAAUUCACUUCAGAGCAAUTT against LMO4 here?
Answer: inactive: -0.067

Question: With GAAAUGCGAGCUGAACAUATT against CMAS as the sequence, how does the median seed-adjusted z-score read?
Answer: inactive: -0.491

Question: For GUGUAGCAAUAAAACGGAUTT against STK39, which median seed-adjusted z-score is on record?
Answer: inactive: 0.232

Question: For UUAUUUCUGUCUUAUCUUATT against PHF7, which median seed-adjusted z-score is on record?
Answer: inactive: 0.425

Question: With CGAUGUCAGUUUCUAGUAATT against USP42 as the sequence, how does the median seed-adjusted z-score read?
Answer: inactive: -0.0125

Question: With CCUUCGAUAUGUCAGGCGATT against CSNK1G1 as the sequence, how does the median seed-adjusted z-score read?
Answer: inactive: -0.255

Question: Which median seed-adjusted z-score does the source give for AGGACAAGCCCGUUUCUUUTT against THAP1 here?
Answer: inactive: 0.139

Question: For GGCAAGACUUCGCACCUCATT against SP8, which median seed-adjusted z-score is on record?
Answer: inactive: -0.215

Question: Which median seed-adjusted z-score does the source give for GCGAUUGCUUUGAUGGGUATT against LTBP1 here?
Answer: inactive: 0.143

Question: Which median seed-adjusted z-score does the source give for AGAGCAUGGACAAUUCCAATT against GPS2 here?
Answer: inactive: 0

Question: For CCAUUGAUCUCUCCUACAATT against ECM2, which median seed-adjusted z-score is on record?
Answer: inactive: 0.179

Question: For ACAGUAAGGUCACAUCAGATT against FLOT2, which median seed-adjusted z-score is on record?
Answer: inactive: 0.961

Question: Which median seed-adjusted z-score does the source give for CGGAGCUUGUUAUCGCAAATT against CDK2 here?
Answer: inactive: -0.347

Question: With GAACUUGACGAGCAGCAGATT against MAP2K2 as the sequence, how does the median seed-adjusted z-score read?
Answer: inactive: -0.502

Question: Which median seed-adjusted z-score does the source give for GGAUGUCUCAUUACACCAUTT against TGFBR3 here?
Answer: inactive: 0.285

Question: With GCUCAUCAAGGACACCGAATT against PPP1R3F as the sequence, how does the median seed-adjusted z-score read?
Answer: inactive: 0.781

Question: With UGACCUCACCAGACCCUGATT against PTPN5 as the sequence, how does the median seed-adjusted z-score read?
Answer: inactive: 0.22

Question: With CAGCCUCUUGUAUACAGUUTT against ACOT12 as the sequence, how does the median seed-adjusted z-score read?
Answer: inactive: 0.0741

Question: For GAGCAUCCCUGAAUCCAUATT against GLYATL2, which median seed-adjusted z-score is on record?
Answer: inactive: -0.947

Question: Which median seed-adjusted z-score does the source give for CAUUGAACGCAGUCCCUUUTT against FLNC here?
Answer: inactive: 0.00217

Question: For GAGCAUCUUCUAUCCGGUUTT against LMTK2, which median seed-adjusted z-score is on record?
Answer: inactive: -0.565

Question: With CACUUUAUCUAUUAUCGGATT against CASD1 as the sequence, how does the median seed-adjusted z-score read?
Answer: inactive: 0.202

Question: Which median seed-adjusted z-score does the source give for GAAUGAAUUCUCUACUCUATT against ERBB3 here?
Answer: inactive: -0.561

Question: For GUCCGGUGUUUGAACCUGATT against ABHD2, which median seed-adjusted z-score is on record?
Answer: active: -1.21

Question: Which median seed-adjusted z-score does the source give for GGGAGUAUCUGUUAGGAGATT against PRSS35 here?
Answer: inactive: -0.0119

Question: For GGACGACCUGCUCAAUGUATT against TRIM29, which median seed-adjusted z-score is on record?
Answer: inactive: 0.331

Question: For GGUAGUUAUUGUCCAACUATT against FGG, which median seed-adjusted z-score is on record?
Answer: inactive: -0.043

Question: Which median seed-adjusted z-score does the source give for GCAUGGGUUUUAUUAUAUATT against CCL11 here?
Answer: inactive: -0.221

Question: For GGAAUUAACAGCUAACAAUTT against MBTPS1, which median seed-adjusted z-score is on record?
Answer: inactive: -0.551

Question: With GCUCUAGCCUUUUUCGACATT against ZNF551 as the sequence, how does the median seed-adjusted z-score read?
Answer: inactive: -0.171

Question: With CAGCAGAUCUCUAAGCUGATT against NCOR2 as the sequence, how does the median seed-adjusted z-score read?
Answer: inactive: -0.305

Question: For CCUGUCUACUGUUCUAUCATT against PSMA6, which median seed-adjusted z-score is on record?
Answer: inactive: -0.768

Question: With CUAUAGCUUUGGAUCGGUATT against HTR1F as the sequence, how does the median seed-adjusted z-score read?
Answer: inactive: -0.127

Question: For GCAUCCUGUUUGUAAAUGATT against DLG4, which median seed-adjusted z-score is on record?
Answer: inactive: -0.498
